# In the supplement of paper PMC6411743:
# ± gives the standard deviation of the averaged measurements. Some of the results follow.
# Molecular target: T1, A0A0C4DGB5|P20810-10|P20810-6|P20810-7|P20810-9|P20810-5 (UniProt P20810)
# T1 sequence (whole entry): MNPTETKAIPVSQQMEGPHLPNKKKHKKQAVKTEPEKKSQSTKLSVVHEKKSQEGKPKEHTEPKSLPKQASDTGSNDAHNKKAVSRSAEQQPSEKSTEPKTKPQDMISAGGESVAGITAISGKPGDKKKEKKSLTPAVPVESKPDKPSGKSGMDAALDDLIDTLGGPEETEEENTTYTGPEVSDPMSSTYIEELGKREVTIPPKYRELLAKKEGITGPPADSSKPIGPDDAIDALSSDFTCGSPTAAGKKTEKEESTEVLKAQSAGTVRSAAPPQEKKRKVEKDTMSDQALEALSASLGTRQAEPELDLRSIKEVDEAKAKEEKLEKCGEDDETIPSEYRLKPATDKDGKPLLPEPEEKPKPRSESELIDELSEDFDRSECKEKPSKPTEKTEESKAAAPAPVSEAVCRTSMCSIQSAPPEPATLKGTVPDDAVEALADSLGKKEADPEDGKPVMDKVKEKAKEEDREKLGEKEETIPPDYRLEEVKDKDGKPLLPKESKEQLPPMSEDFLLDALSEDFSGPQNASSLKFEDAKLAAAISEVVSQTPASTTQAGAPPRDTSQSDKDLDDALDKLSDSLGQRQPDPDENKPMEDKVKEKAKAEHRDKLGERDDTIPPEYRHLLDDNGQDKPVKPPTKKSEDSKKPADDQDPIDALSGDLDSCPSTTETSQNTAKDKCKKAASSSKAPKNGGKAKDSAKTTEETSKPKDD
# Assay: NP40-soluble protein abundance relative to vehicle (solubility fold change) (ratio); higher = more soluble protein in presence of GTP
# Protocol: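 Solubility proteome profiling in Jurkat crude lysate. Lysate was treated with Mg-GTP (0.1-10 mM) for 10 min at room temperature and 3 min at 37 °C, then solubilised with 0.8% NP40 and benzonase, followed by ultracentrifugation. Proteins were quantified by TMT10 LC-MS/MS; the value is the NP40-soluble abundance relative to the NP40-processed vehicle, from 3 independent experiments.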
structure (smiles),measurement,setting,value
Nc1nc2c(ncn2[C@@H]2O[C@H](COP(=O)(O)OP(=O)(O)OP(=O)(O)O)[C@@H](O)[C@H]2O)c(=O)[nH]1 [guanosine triphosphate],NP40-soluble protein abundance,concentration: 0.1mM,0.952 ± 0.07
same,NP40-soluble protein abundance,concentration: 0.5mM,0.92 ± 0.09
same,NP40-soluble protein abundance,concentration: 1mM,1.02 ± 0.1
same,NP40-soluble protein abundance,concentration: 2mM,0.943 ± 0.14
same,NP40-soluble protein abundance,concentration: 4mM,0.91 ± 0.11
same,NP40-soluble protein abundance,concentration: 6mM,0.95 ± 0.12
same,NP40-soluble protein abundance,concentration: 8mM,0.954 ± 0.022
same,NP40-soluble protein abundance,concentration: 10mM,1 ± 0.081
